Reference: paper PMC12557383 (Journal of Medicinal Chemistry, 2025)
Some peptides are written in HELM: one residue between dots, names in brackets for other building blocks, links after the first $.

Assay: general procedure: Fmoc solid-phase peptide synthesis; Fmoc-aminoacyl-CLEAR amide resin (0.36 mmol/g); Fmoc-Phe-Wang resin (0.30 mmol/g) for MazE_48–53; DIC/HOBT or TBTU
Details: whole synthesis, RP-HPLC, absorbance at 210 nm

PEPTIDE1{[ac].S.H.L.F.W.A.Q.F.D.E.Y.F.[am]}$$$$V2.0
final HPLC purity: about 98%
